# Measured values: the supplement of paper PMC4635364
# Structures can show the parent of a compound that is named as a salt. The list shows a part of the results. This data set is noisy: repeats of one test often differ as much as different tests do.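 ReNCell VM, a human fetal ventral-midbrain neural progenitor line, was differentiated without mitogens. Blinded raters scored images stained for doublecortin (early neurons) or tyrosine hydroxylase (dopaminergic neurons) against untreated wells (0 = no change). Scores were averaged across repeats and both raters, and compounds averaging 2 or more were selected as hits for retesting.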
# How the values were obtained:
# ReNCell VM [1] = experiment: neuronal differentiation score (DCX+ cell fraction vs untreated, manual image score) (score (-3 to 3)); higher = more neuronal differentiation; settings: 2 uM, 2 weeks
# ReNCell VM [2] = experiment: dopaminergic neuron differentiation score (TH+ cell fraction vs untreated, manual image score) (score (0 to 3)); higher = more TH+ dopaminergic neuron differentiation; settings: 2 uM, 4 weeks, BDNF 10 ng/ml + GDNF 10 ng/ml
structure (smiles),measurement,setting,value
CCN[C@@H]1C[C@H](N)[C@@H](O[C@H]2OC(CN)=CC[C@H]2N)[C@H](O)[C@H]1O[C@H]1OC[C@](C)(O)[C@H](NC)[C@H]1O,neuronal differentiation score,ReNCell VM [1]; library: Spectrum,inactive: 0
same,dopaminergic neuron differentiation score,ReNCell VM [2]; library: Spectrum,inactive: 0
"CC1=CC(=O)OC1Cc1ccc2ccccc2n1 (centres undefined) [2-(3-methyl-5-oxo-2,5-dihydro-furan-2-ylmethyl)-quinoline]",neuronal differentiation score,ReNCell VM [1]; library: Natural,inactive: 0
same,dopaminergic neuron differentiation score,ReNCell VM [2]; library: Natural,inactive: 0
COC(=O)C1=C(C)NC(C)=C(C(=O)OCCCN2CCC(c3ccccc3)(c3ccccc3)CC2)[C@@H]1c1cccc([N+](=O)[O-])c1 [(R)-(-)-Niguldipine hydrochloride],neuronal differentiation score,ReNCell VM [1]; library: Tocriscreen,inactive: 0
same,dopaminergic neuron differentiation score,ReNCell VM [2]; library: Tocriscreen,inactive: 0
NC1CCN(c2c(F)cc3c(=O)c(C(=O)O)cn(C4CC4)c3c2Cl)C1 (centres undefined) [Clinafloxacin],neuronal differentiation score,ReNCell VM [1]; library: Prestwick,inactive: 0
same,dopaminergic neuron differentiation score,ReNCell VM [2]; library: Prestwick,inactive: 0
CCOC(=S)SSC(=S)OCC,neuronal differentiation score,ReNCell VM [1]; library: Spectrum,inactive: 0
same,dopaminergic neuron differentiation score,ReNCell VM [2]; library: Spectrum,inactive: 0
O=C(O)c1ccc(-c2ccc3cc(O)c(C45CC6CC(CC(C6)C4)C5)cc3c2)cc1,neuronal differentiation score,ReNCell VM [1]; library: Tocriscreen,inactive: 0
same,dopaminergic neuron differentiation score,ReNCell VM [2]; library: Tocriscreen,inactive: 0
O=c1[nH]c(=O)n([C@H]2C[C@H](O)[C@@H](CO)O2)cc1F [Floxuridine],neuronal differentiation score,ReNCell VM [1]; library: Prestwick,inactive: 0
same,dopaminergic neuron differentiation score,ReNCell VM [2]; library: Prestwick,inactive: 0
CC1=C(/C=C/C(C)=C/C=C/C(C)=C/C=C/C=C(C)/C=C/C=C(C)/C=C/C(=O)[C@]2(C)C[C@@H](O)CC2(C)C)C(C)(C)C[C@H](O)C1,neuronal differentiation score,ReNCell VM [1]; library: Spectrum,inactive: 0
same,dopaminergic neuron differentiation score,ReNCell VM [2]; library: Spectrum,inactive: 0
OC(CCN1CCCCC1)(c1ccccc1)C1CCCCC1 (centres undefined),neuronal differentiation score,ReNCell VM [1]; library: Spectrum,inactive: 0
same,dopaminergic neuron differentiation score,ReNCell VM [2]; library: Spectrum,inactive: 0
CN(C)CCc1c[nH]c2ccc(CS(=O)(=O)N3CCCC3)cc12,neuronal differentiation score,ReNCell VM [1]; library: Spectrum,inactive: 0
same,dopaminergic neuron differentiation score,ReNCell VM [2]; library: Spectrum,inactive: 0
N=C(N)SCCN [2-(2-Aminoethyl)isothiourea dihydrobromide],neuronal differentiation score,ReNCell VM [1]; library: LOPAC,inactive: 0
same,dopaminergic neuron differentiation score,ReNCell VM [2]; library: LOPAC,inactive: 0
"N=C(N)SCCc1ccc(CCSC(=N)N)cc1 [1,4-PBIT dihydrobromide]",neuronal differentiation score,ReNCell VM [1]; library: LOPAC,inactive: 0
same,dopaminergic neuron differentiation score,ReNCell VM [2]; library: LOPAC,inactive: 0
COc1c2c(cc3c1C(NC(N)=O)[N+](C)(C)CC3)OCO2 (centres undefined),neuronal differentiation score,ReNCell VM [1]; library: Natural,inactive: 0
same,dopaminergic neuron differentiation score,ReNCell VM [2]; library: Natural,inactive: 0
CC(Oc1ccccc1)C(=O)N[C@@H]1C(=O)N2[C@@H]1SC(C)(C)[C@@H]2C(=O)O (some centres undefined) [Phenethicillin potassium salt],neuronal differentiation score,ReNCell VM [1]; library: Prestwick,inactive: 0
same,dopaminergic neuron differentiation score,ReNCell VM [2]; library: Prestwick,inactive: 0
CN(C)CCN(Cc1ccc(Cl)cc1)c1ccccn1 [Chloropyramine hydrochloride],neuronal differentiation score,ReNCell VM [1]; library: Prestwick,inactive: 0
same,dopaminergic neuron differentiation score,ReNCell VM [2]; library: Prestwick,inactive: 0
NS(=O)(=O)c1cc2c(cc1C(F)(F)F)NCNS2(=O)=O,neuronal differentiation score,ReNCell VM [1]; library: Spectrum,inactive: 0
same,dopaminergic neuron differentiation score,ReNCell VM [2]; library: Spectrum,inactive: 0
CCOC(=O)c1c(C)cc(O)cc1O,neuronal differentiation score,ReNCell VM [1]; library: Spectrum,inactive: 0
same,dopaminergic neuron differentiation score,ReNCell VM [2]; library: Spectrum,inactive: 0
CC(C)NCCN(C(C)C)S(=O)(=O)c1ccc(Cl)cc1Cl,neuronal differentiation score,ReNCell VM [1]; library: Tocriscreen,inactive: 0
same,dopaminergic neuron differentiation score,ReNCell VM [2]; library: Tocriscreen,inactive: 0
CO/N=C(\C(=O)N[C@@H]1C(=O)N2C(C(=O)O)=C(CSc3nnnn3C)CS[C@H]12)c1csc(N)n1,neuronal differentiation score,ReNCell VM [1]; library: Spectrum,inactive: 0
same,dopaminergic neuron differentiation score,ReNCell VM [2]; library: Spectrum,inactive: 0
COc1ccc(CN2C(=O)C(=O)c3cc(OC(F)(F)F)ccc32)cc1,neuronal differentiation score,ReNCell VM [1]; library: Tocriscreen,inactive: 0
same,dopaminergic neuron differentiation score,ReNCell VM [2]; library: Tocriscreen,inactive: 0
CC(=O)NS(=O)(=O)c1ccc(N)cc1 [Sulfacetamide sodic hydrate],neuronal differentiation score,ReNCell VM [1]; library: Prestwick,inactive: 0
same,dopaminergic neuron differentiation score,ReNCell VM [2]; library: Prestwick,inactive: 0
Cc1ccc2c(Br)cc(Br)c(OC(=O)c3ccccc3)c2n1,neuronal differentiation score,ReNCell VM [1]; library: Spectrum,inactive: 0
same,dopaminergic neuron differentiation score,ReNCell VM [2]; library: Spectrum,inactive: 0
CCN1CC(CCN2CCOCC2)C(c2ccccc2)(c2ccccc2)C1=O (centres undefined),neuronal differentiation score,ReNCell VM [1]; library: Spectrum,inactive: 0
same,dopaminergic neuron differentiation score,ReNCell VM [2]; library: Spectrum,inactive: 0
Cn1ccnc1S [Methimazole],neuronal differentiation score,ReNCell VM [1]; library: Prestwick,inactive: 0
same,dopaminergic neuron differentiation score,ReNCell VM [2]; library: Prestwick,inactive: 0
O=S(=O)(c1ccccc1)N(CC(F)(F)F)c1ccc(C(O)(C(F)(F)F)C(F)(F)F)cc1,neuronal differentiation score,ReNCell VM [1]; library: Tocriscreen,inactive: 0
same,dopaminergic neuron differentiation score,ReNCell VM [2]; library: Tocriscreen,inactive: 0
CCC(=O)O[C@H](CC(=O)O)C[N+](C)(C)C,neuronal differentiation score,ReNCell VM [1]; library: Spectrum,inactive: 0
same,dopaminergic neuron differentiation score,ReNCell VM [2]; library: Spectrum,inactive: 0
Fc1ccc(Cl)cc1-c1nc(Nc2ccncc2)c2nccnc2n1,neuronal differentiation score,ReNCell VM [1]; library: Tocriscreen,inactive: 0
same,dopaminergic neuron differentiation score,ReNCell VM [2]; library: Tocriscreen,inactive: 0

# Reprinted at random: 3 entries already listed.
structure (smiles),measurement,setting,value
Cc1ccc2c(Br)cc(Br)c(OC(=O)c3ccccc3)c2n1,dopaminergic neuron differentiation score,ReNCell VM [2]; library: Spectrum,inactive: 0
COc1c2c(cc3c1C(NC(N)=O)[N+](C)(C)CC3)OCO2 (centres undefined),dopaminergic neuron differentiation score,ReNCell VM [2]; library: Natural,inactive: 0
O=S(=O)(c1ccccc1)N(CC(F)(F)F)c1ccc(C(O)(C(F)(F)F)C(F)(F)F)cc1,neuronal differentiation score,ReNCell VM [1]; library: Tocriscreen,inactive: 0
